# Patent US7211246B2, “Compositions comprising oestrone-3-0-sulphamate and trail (TNF-related apoptosis inducing ligand)” (Sterix Limited, priority 2001, dated 2007)
# Some of these results come from one statement about several compounds together.
# Tested on: CAL51 cells
# Assay: Cell Titre 96 Aqueous One Solution cell proliferation assay, CAL51 cells
# Type: cell-based
# Settings: compound alone, 0.05-5 μM, over 2 days
# Description: FIGS. 1A to 1C show effects of 2-MeOEMATE and 2-EtEMATE on TRAIL induced apoptosis in CAL51 and MCF-7 cells. Cell proliferation assays in which CAL51 cells or MCF7 cells were plated at a density of 5,000 in 96 well plates and treated with 0, 0.05, 0.5 or 5 μM MeoEMATE or 2-EtEMATE in the presence of 0, 50 or 250 ng/ml recombinant human TRAIL. Results are the mean of triplicates+/−S.D. and are expressed as a percentage of results for untreated cells.
# Cell proliferation was measured using the Cell Titre 96 Aqueous One Solution Cell proliferation assay (Promega). This is a colorimetric method which determines cell viability and can therefore be used to measure the ability of drugs to cause cell death. The assay is performed by adding the cell proliferation reagent directly to the cells. Metabolically active cells convert the reagent to a coloured formazan product and the absorbance at 490 nm is measured 1–4 hrs after incubation at 37° C.
# For the TRAIL co-operation experiments, CAL-51 of MCF-7 cells were plated at 5,000 cells per well in 96 well plates. […] Cell proliferation was measured 2 days (CAL-51) or 1 day (MCF-7) after addition of drugs. Tests were performed in triplicate and data are means of triplicate results+/−S.D. and are expressed as a percentage of results obtained for untreated cells. […]
structure (smiles),measurement,value
"CCc1cc2c(cc1OS(N)(=O)=O)CCC1C2CCC2(C)C(=O)CCC12 (stereo not shown) [2-EtEMATE, 2-ethyloestrone-3-O-sulphamate]",cell death,up to 60%
